{"source": "paper PMC5520684", "biological_target": "T1, HA-tagged MFHAS1 (malignant fibrous histiocytoma amplified sequence 1) (UniProt Q9Y4C4)", "T1 sequence": "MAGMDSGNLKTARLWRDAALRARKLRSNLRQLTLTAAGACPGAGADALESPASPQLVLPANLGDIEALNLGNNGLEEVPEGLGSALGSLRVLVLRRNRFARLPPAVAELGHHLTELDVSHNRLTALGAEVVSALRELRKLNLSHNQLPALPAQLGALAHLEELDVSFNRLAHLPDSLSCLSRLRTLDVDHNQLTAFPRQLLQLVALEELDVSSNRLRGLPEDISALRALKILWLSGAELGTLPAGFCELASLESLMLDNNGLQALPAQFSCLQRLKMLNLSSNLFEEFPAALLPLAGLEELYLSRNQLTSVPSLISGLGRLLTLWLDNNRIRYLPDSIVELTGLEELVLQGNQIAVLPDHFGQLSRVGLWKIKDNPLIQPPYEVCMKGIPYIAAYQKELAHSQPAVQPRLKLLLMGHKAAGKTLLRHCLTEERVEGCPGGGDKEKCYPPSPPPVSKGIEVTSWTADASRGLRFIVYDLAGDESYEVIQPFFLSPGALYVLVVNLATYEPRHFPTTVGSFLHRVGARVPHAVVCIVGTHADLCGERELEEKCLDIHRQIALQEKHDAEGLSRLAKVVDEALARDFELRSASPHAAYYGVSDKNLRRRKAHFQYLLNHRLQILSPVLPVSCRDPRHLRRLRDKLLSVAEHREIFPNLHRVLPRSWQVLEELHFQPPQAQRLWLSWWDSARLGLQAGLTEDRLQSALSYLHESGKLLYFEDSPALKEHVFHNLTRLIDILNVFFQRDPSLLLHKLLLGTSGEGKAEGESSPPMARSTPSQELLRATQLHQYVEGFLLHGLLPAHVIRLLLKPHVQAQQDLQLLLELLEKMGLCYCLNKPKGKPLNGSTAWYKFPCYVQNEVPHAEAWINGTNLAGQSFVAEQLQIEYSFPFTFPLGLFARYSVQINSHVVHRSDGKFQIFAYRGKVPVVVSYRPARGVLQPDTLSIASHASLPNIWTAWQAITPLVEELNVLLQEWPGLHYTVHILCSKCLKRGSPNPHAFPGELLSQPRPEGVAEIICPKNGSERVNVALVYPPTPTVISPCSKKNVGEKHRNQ", "assay": "affinity purification with mass spectrometry; HEK293-MFHAS1 lysate precipitated with anti-HA antibody or normal mouse IgG and protein G-Agarose; SDS-PAGE, Coomassie staining, bands not seen in the control excised", "note": "Results are given in words; binding and its absence hold for the method and conditions named. Binding seen in cells or lysates may run through a third protein. These calls come from enrichment with a bait or labelling near it, and not all partners need be listed. Tags and fused reporters may be left off the sequences shown."}
{"binder": "praja ring finger 2 (praja2), endogenous (protein, UniProt O43164 1-708) MSQYTEKEPAAMDQESGKAVWPKPAGGYQTITGRRYGRRHAYVSFKPCMTRHERSLGRAGDDYEVLELDDVPKENSSGSSPLDQVDSSLPSEPIFEKSETEIPTCGSALNQTTESSQSFVAVHHSEEGRDTLGSSTNLHNHSEGEYIPGACSASSVQNGIALVHTDSYDPDGKHGEDNDHLQLSAEVVEGSRYQESLGNTVFELENREAEAYTGLSPPVPSFNCEVRDEFEELDSVPLVKSSAGDTEFVHQNSQEIQRSSQDEMVSTKQQNNTSQERQTEHSPEDAACGPGHICSEQNTNDREKNHGSSPEQVVRPKVRKLISSSQVDQETGFNRHEAKQRSVQRWREALEVEESGSDDLLIKCEEYDGEHDCMFLDPPYSRVITQRETENNQMTSESGATAGRQEVDNTFWNGCGDYYQLYDKDEDSSECSDGEWSASLPHRFSGTEKDQSSSDESWETLPGKDENEPELQSDSSGPEEENQELSLQEGEQTSLEEGEIPWLQYNEVNESSSDEGNEPANEFAQPAFMLDGNNNLEDDSSVSEDLDVDWSLFDGFADGLGVAEAISYVDPQFLTYMALEERLAQAMETALAHLESLAVDVEVANPPASKESIDGLPETLVLEDHTAIGQEQCCPICCSEYIKDDIATELPCHHFFHKPCVSIWLQKSGTCPVCRRHFPPAVIEASAAPSSEPDPDAPPSNDSIAEAP", "values": [{"measurement": "binding", "result": "binds"}]}
